Results deposited as PubChem BioAssay AID743121 (NCATS, 2013).
The deposit covers about 26,000 reagents; shown is a part drawn at random. 167 of all reagents (0.63%) were called active. 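Calls are per gene from RSA p-values that are not deposited; an individual active-marked siRNA can sensitise only weakly.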 The numbers tell different reagents against one gene apart. Further read-outs or replicates are left out here. Reagent sequences are not shown.

Screen: 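Genes whose silencing strengthens cell killing by camptothecin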 (primary screen)
Cells: MDA-MB-231 cells, a human breast cancer line
Reagents: single siRNA against human genes, 20 nM siRNA (0.8 pmol per well)
Duration: 120 h (drug added 48 h after transfection, read 72 h later)
Conditions: camptothecin 20 nM (about EC30) for 72 h; vehicle 0.1% DMSO in parallel plates
Read-out: 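CellTiter-Glo ATP signal, scaled to control siRNA as percent viability; sensitisation given as log2 of untreated divided by camptothecin-treated viability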
Direction: log2 vehicle/camptothecin viability: higher = stronger sensitisation to camptothecin
Rule for the call: 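Active genes have an RSA gene-level p-value below 0.001, computed from the ratios of their separate siRNAs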

log2 vehicle/camptothecin viability, by gene symbol and reagent
LMTK1: #1 -0.196 inactive; #2 -0.396 inactive; #3 -0.176 inactive; #4 -0.211 inactive
P4HB: #1 -0.0962 inactive; #2 -0.104 inactive; #3 -0.279 inactive
GPS2: #1 -0.492 inactive; #2 -0.168 inactive; #3 -0.0447 inactive; #4 -0.183 inactive
WNK4: #1 -0.235 inactive; #2 0.305 inactive; #3 0.097 inactive; #4 -0.23 inactive
CACNA1C: #1 -0.28 inactive; #2 0.136 inactive; #3 -0.0413 inactive; #4 0.294 inactive
PRF1: #1 -0.181 inactive; #2 -0.0104 inactive; #3 0.0117 inactive; #4 -0.718 inactive
AKAP7: #1 -0.0866 inactive; #2 -0.0904 inactive; #3 1.02 inactive; #4 -0.0828 inactive

6 entries from above, arranged by “log2 vehicle/camptothecin viability”, lowest first:
gene symbol	reagent no.	log2 vehicle/camptothecin viability	Call
GPS2	1	-0.492	inactive
P4HB	3	-0.279	inactive
LMTK1	4	-0.211	inactive
LMTK1	3	-0.176	inactive
P4HB	2	-0.104	inactive
P4HB	1	-0.0962	inactive

More results follow:
log2 vehicle/camptothecin viability, by gene symbol and reagent
EPB41: #1 0.0836 inactive; #2 -0.227 inactive; #3 0.187 inactive; #4 0.0513 inactive
TRIM51BP: #1 -0.33 inactive; #2 -0.0634 inactive
PCDH17: #1 0.352 inactive; #2 0.0262 inactive; #3 0.049 inactive; #4 -0.28 inactive
LPAR4: #1 -0.47 inactive; #2 -0.514 inactive; #3 -0.192 inactive
TNNT1: #1 -0.272 inactive; #2 -0.0565 inactive; #3 -0.456 inactive
LTF: #1 -0.0761 inactive; #2 -0.154 inactive; #3 -0.34 inactive; #4 0.256 inactive
